{"source": "PubChem BioAssay AID540256", "about": "(National Center for Advancing Translational Sciences (NCATS), 2011)", "note": "“And” between values parts separate entries of the source, which are not always exact repeats. Equal values may be shown once. The campaign covered roughly 300,000 compounds. About 3,700 (1.2%) were called active. The inconclusive results got no clear call from the source; some entries with a clear call stand among them for comparison. Calls follow the shape of the full dose curve; tested in HEK293 cells. Potencies of inconclusive entries are doubtful fits and often do not repeat. Potency is read from the fitted curve at half-maximal effect."}
{"assay": "qHTS for Inhibitors of binding or entry into cells for Lassa Virus; also: nearly all actives have a fitted effect of over 50% in size", "conditions": "Lassa virus pseudotype entry inhibition, cell reporter; series mostly up to 37.9 µM"}
{"compound": "Cc1cc(C)c2nc3nc(C)cc(C)c3c(N)c2c1", "Potency": "active: 12.6 µM"}
{"compound": "CC1CCN(CCCNC(=O)c2ccc(CSCc3cccc(Cl)c3)o2)CC1", "Potency": "inactive"}
{"compound": "N=c1n(CCN2CCCCC2)c2ccccc2n1CC(O)c1ccc(Cl)c(Cl)c1", "note": "(stereo unspecified)", "Potency": "inconclusive: 29.1 µM [inhibitor, single point]"}
{"compound": "COc1nnc(OC)c2ccccc12", "Potency": "inactive"}
{"compound": "CCC(C(=O)NC1CCCC1)N(C(=O)c1snc(C(N)=O)c1N)c1ccc(C)cc1C", "note": "(stereo unspecified)", "Potency": "inconclusive: 35.5 µM [inhibitor, single point]"}
{"compound": "CC(C)Sc1nc2ccccc2n2cnnc12", "Potency": "inactive"}
{"compound": "Cc1ccccc1OCCC(=O)N1CCN(S(=O)(=O)c2ccc(Br)cc2)CC1", "Potency": "inconclusive: 12.6 µM [inhibitor, single point]"}
{"compound": "C/C(CC(=O)Nc1ccccn1)=N\\NC(=O)c1cccc(C)c1", "Potency": "inactive"}
{"compound": "COc1cc(Nc2nc(SCc3ccccc3F)nc3ccccc23)cc(OC)c1", "Potency": "inconclusive: 35.5 µM [inhibitor, single point]"}
{"compound": "Cc1ccc(S(=O)(=O)c2cc3ccccc3nc2N)cc1", "Potency": "inactive"}
{"compound": "CCc1ccc(C(C)NC(=O)Cc2ccc(F)cc2)cc1", "note": "(stereo unspecified)", "Potency": "inconclusive: 35.5 µM [inhibitor, single point]"}
{"compound": "COC(=O)COc1ccc(NC(=O)c2ccco2)cc1", "Potency": "inactive"}
{"compound": "Cc1nn(C)c(Oc2ccc(Cl)cc2)c1C(=O)Nc1ccc(F)cc1F", "Potency": "inactive"}
{"compound": "CCn1ccnc1CN1CCCC(C(=O)c2ccc(SC)cc2)C1", "note": "(stereo unspecified)", "Potency": "inconclusive: 35.5 µM [inhibitor, single point]"}
{"compound": "CCOc1ccc(C(=O)NCCc2sc(-c3ccc(C)cc3)nc2C)cc1", "Potency": "inconclusive: 11.2 µM [inhibitor, partial curve, poor fit]"}
{"compound": "Brc1ccccc1/C=N/Nc1ccccn1", "Potency": "inconclusive: 35.5 µM [activator, single point]"}
{"compound": "COc1ccc(C[C@@H]2OC3(C=CC(=O)C=C3)O[C@H]2Cc2ccc(OC)cc2)cc1", "Potency": "inconclusive: 3.16 µM [inhibitor, full curve, poor fit]"}
{"compound": "CCS(=O)(=O)c1ccc(OC)c(Nc2ncc(-c3cccc(F)c3)o2)c1", "Potency": "inactive"}
{"compound": "c1ccc(-n2cnc3cc(NCc4cccs4)ccc32)cc1", "Potency": "inconclusive: 8.2 µM [inhibitor, partial curve, poor fit]"}
{"compound": "CCn1cc(C(=O)NCc2ccccc2OC)c(=O)c2ccc(C)nc21", "Potency": "inconclusive: 17.8 µM [activator, partial curve, poor fit]"}
{"compound": "Cc1cccc(NC(=O)c2ccc3ccccc3n2)c1C", "Potency": "active: 10 µM"}
{"compound": "CCCN(CC(=O)Nc1ccccc1C)C(=O)C1CC(=O)N(Cc2ccccc2)C1", "note": "(stereo unspecified)", "Potency": "inactive"}
{"compound": "CCCN(CCC)C1=CC(=[N+]2CCCC2)CC(C)(C)C1", "Potency": "active: 10 µM"}
{"compound": "Cc1ccc2c(CC(=O)N3CCN(c4cccc(Cl)c4)CC3)coc2c1", "Potency": "inconclusive: 35.5 µM [inhibitor, single point]"}
{"compound": "COc1cc([N+](=O)[O-])ccc1NC(=O)NCC1CCN(Cc2ccc(Cl)cc2)CC1", "Potency": "inactive"}
{"compound": "CCCCNc1ccc(-c2nc(-c3ccccc3)no2)cc1[N+](=O)[O-]", "Potency": "inactive"}
{"compound": "CCN(CC)c1ccc(NC(=O)COc2ccccc2C)cc1S(=O)(=O)Nc1ccccc1OC", "Potency": "inconclusive: 11.2 µM [inhibitor, partial curve, poor fit]"}
{"compound": "Cc1ccc(Sc2ccc(N3CCCC(C(=O)Nc4ccc(Cl)cc4)C3)nn2)cc1", "note": "(stereo unspecified)", "Potency": "inconclusive: 7.08 µM [inhibitor, partial curve, poor fit]"}
{"compound": "COc1ccccc1N1CCN(CCCNC(=O)c2cnn(-c3ccccc3Cl)c2C2CCN(C(=O)OC(C)(C)C)CC2)CC1", "Potency": "inconclusive: 8.91 µM [inhibitor, partial curve, poor fit]"}
{"compound": "Cc1ccc(NC2=NCC(Cc3ccc(Br)cc3)S2)cc1", "note": "(stereo unspecified)", "Potency": "inconclusive: 10 µM [activator, partial curve, poor fit]"}
{"compound": "Cc1nc2c(n1O)CCC/C2=N\\O", "Potency": "inactive"}
{"compound": "CCOc1ccc(C(=O)NC2CCN(C(=O)NCc3ccccc3)CC2)cc1", "Potency": "inconclusive: 36.6 µM [inhibitor, partial curve, poor fit]"}
{"compound": "CC(C)(C)NC(=O)CON=C1c2ccccc2-c2ccccc21", "Potency": "inactive"}
{"compound": "Cc1ccc(-n2nc3cc(C)c(N)cc3n2)cc1", "Potency": "active: 12.6 µM"}
{"compound": "CC(C)CCN1C(=O)N(c2ccccc2)C(=O)C1CC(=O)Nc1ccc(Cl)cc1", "note": "(stereo unspecified)", "Potency": "inactive"}
{"compound": "CCOCCCNC(=O)C(c1ccc(OC)cc1)N(Cc1cccs1)C(=O)c1ccccc1O", "note": "(stereo unspecified)", "Potency": "inconclusive: 3.16 µM [activator, single point] and inconclusive: 11.2 µM [inhibitor, partial curve, poor fit]"}
{"compound": "Cc1ccnc(Cc2ccccc2)n1", "Potency": "inconclusive: 11.2 µM [activator, single point]"}
{"compound": "Cc1nc2cc(-c3ccc(Cl)cc3)nn2c(NCCN(C)C)c1C", "Potency": "inconclusive: 35.5 µM [inhibitor, single point]"}
{"compound": "O=C(CN1CCN(S(=O)(=O)c2ccccc2)CC1)Nc1ccc2c(c1)CCC2", "Potency": "inconclusive: 0.0517 µM [inhibitor, full curve]"}
{"compound": "N#CCC(=O)Nc1ccc(C(=O)NNC(=S)NC2CC2)cc1", "Potency": "inconclusive: 35.5 µM [activator, single point]"}
{"compound": "Cc1ccc(C(c2nnnn2C2CCCC2)N2CCc3ccccc32)cc1", "note": "(stereo unspecified)", "Potency": "inconclusive: 7.94 µM [activator, partial curve, poor fit]"}
{"compound": "COc1ccc(CNC(=O)c2ccc[nH]2)cc1Cl", "Potency": "inconclusive: 35.5 µM [activator, single point]"}
{"compound": "CCOC(=O)C1[C@H]2C(=O)N(CCCOC)C[C@]23C=C[C@H]1O3", "note": "(stereo partly specified)", "Potency": "inconclusive: 6.51 µM [inhibitor, single point]"}
{"compound": "O=C(CN1CCOCC1)Nc1ccccc1Sc1ccc(Cl)cc1", "Potency": "inconclusive: 35.5 µM [inhibitor, single point]"}
{"compound": "Cc1ncc(COCc2ccccc2)c(CO)c1OCc1ccccc1", "Potency": "inconclusive: 35.5 µM [inhibitor, single point]"}
{"compound": "C/C(CC(=O)Nc1ccc(OCc2ccccc2)cc1)=N\\NC(=O)C(=O)Nc1ccc(C)c(Cl)c1", "Potency": "inconclusive: 35.5 µM [inhibitor, partial curve, poor fit]"}
